# Results reported in patent publication US20030211458A1, “Measurements of enzymatic activity in a single, individual cell in population” (priority 2000, published 2003).
# At least one structure is not confirmed: it was looked up by name or label, or the drawing left a doubt.
# System: individual cells
# Assay: Leakage of intracellular fluorescein from individual cells (rate equation)
# Type: cell-based
# Conditions: outcome of many hundreds of independent experiments (data not shown)
smiles,measurement,value
O=C1OC2(c3ccc(O)cc3Oc3cc(O)ccc32)c2ccccc21 [fluorescein],"β, rate constant for leakage of the intracellular fluorescein",~10^−4 sec^−1
